Record: PubChem BioAssay AID1508597 (Cure First, 2020)
The deposit covers about 2,100 reagents; this is an unselected part. 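Calls flag viability under 80% in either arm, not effects specific to rucaparib; the reference for percent is not stated.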 Unmarked entries are inactive. Some reagents were tested in more than one well and are listed for each. The record does not give: the 100% reference.

Test: 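Knock-downs altering ovarian cancer cell survival with or without PARP inhibitor rucaparib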 (primary screen)
Cells: human ovarian carcinoma lines grown from tumours: OCI-P5x (papillary serous) and OCI-C5x (clear cell)
Knock-down reagent: siRNA pool against human genes, 1.25 pmol siRNA per well
Time to read-out: 72 h or 96 h, depending on the cell culture
Treatment: rucaparib 20 µM (about IC30) or vehicle, present until read-out
Read-out: 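ATP luminescence measured at 72 or 96 h according to the culture, then normalised and expressed as percent viability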
Reading the numbers: viability, normalised: higher = more viable cells remaining
Hit rule: 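Active when normalised viability falls below 80 percent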
Calls: active = viability under 80%; inactive = viability 80% or more

{"gene knocked down":"CECR2","rucaparib or vehicle":"Rucaparib","cell line":"OCI-C5x (clear cell)","technical replicate":"1","viability, normalised (%)":"45.7 (active)"}
{"gene knocked down":"CECR2","rucaparib or vehicle":"Rucaparib","cell line":"OCI-C5x (clear cell)","technical replicate":"1","viability, normalised (%)":"60 (active)"}
{"gene knocked down":"CECR2","rucaparib or vehicle":"Rucaparib","cell line":"OCI-C5x (clear cell)","technical replicate":"2","viability, normalised (%)":"47.6 (active)"}
{"gene knocked down":"CECR2","rucaparib or vehicle":"Rucaparib","cell line":"OCI-C5x (clear cell)","technical replicate":"2","viability, normalised (%)":"49.7 (active)"}
{"gene knocked down":"CECR2","rucaparib or vehicle":"Rucaparib","cell line":"OCI-C5x (clear cell)","technical replicate":"3","viability, normalised (%)":"53.2 (active)"}
{"gene knocked down":"CECR2","rucaparib or vehicle":"Rucaparib","cell line":"OCI-C5x (clear cell)","technical replicate":"3","viability, normalised (%)":"56.3 (active)"}
{"gene knocked down":"CECR2","rucaparib or vehicle":"Rucaparib","cell line":"OCI-P5x (serous)","technical replicate":"1","viability, normalised (%)":89.4}
{"gene knocked down":"CECR2","rucaparib or vehicle":"Rucaparib","cell line":"OCI-P5x (serous)","technical replicate":"1","viability, normalised (%)":"68.7 (active)"}
{"gene knocked down":"CECR2","rucaparib or vehicle":"Rucaparib","cell line":"OCI-P5x (serous)","technical replicate":"2","viability, normalised (%)":"67.7 (active)"}
{"gene knocked down":"CECR2","rucaparib or vehicle":"Rucaparib","cell line":"OCI-P5x (serous)","technical replicate":"2","viability, normalised (%)":87.3}
{"gene knocked down":"CECR2","rucaparib or vehicle":"Rucaparib","cell line":"OCI-P5x (serous)","technical replicate":"3","viability, normalised (%)":"68.1 (active)"}
{"gene knocked down":"CECR2","rucaparib or vehicle":"Rucaparib","cell line":"OCI-P5x (serous)","technical replicate":"3","viability, normalised (%)":85.8}
{"gene knocked down":"CECR2","rucaparib or vehicle":"Vehicle","cell line":"OCI-C5x (clear cell)","technical replicate":"1","viability, normalised (%)":"46.9 (active)"}
{"gene knocked down":"CECR2","rucaparib or vehicle":"Vehicle","cell line":"OCI-C5x (clear cell)","technical replicate":"1","viability, normalised (%)":"66.8 (active)"}
{"gene knocked down":"CECR2","rucaparib or vehicle":"Vehicle","cell line":"OCI-C5x (clear cell)","technical replicate":"2","viability, normalised (%)":"53.4 (active)"}
{"gene knocked down":"CECR2","rucaparib or vehicle":"Vehicle","cell line":"OCI-C5x (clear cell)","technical replicate":"2","viability, normalised (%)":"41.3 (active)"}
{"gene knocked down":"CECR2","rucaparib or vehicle":"Vehicle","cell line":"OCI-C5x (clear cell)","technical replicate":"3","viability, normalised (%)":"53 (active)"}
{"gene knocked down":"CECR2","rucaparib or vehicle":"Vehicle","cell line":"OCI-C5x (clear cell)","technical replicate":"3","viability, normalised (%)":"52.4 (active)"}
{"gene knocked down":"CECR2","rucaparib or vehicle":"Vehicle","cell line":"OCI-P5x (serous)","technical replicate":"1","viability, normalised (%)":"76.1 (active)"}
{"gene knocked down":"CECR2","rucaparib or vehicle":"Vehicle","cell line":"OCI-P5x (serous)","technical replicate":"1","viability, normalised (%)":90.9}
{"gene knocked down":"CECR2","rucaparib or vehicle":"Vehicle","cell line":"OCI-P5x (serous)","technical replicate":"2","viability, normalised (%)":104}
{"gene knocked down":"CECR2","rucaparib or vehicle":"Vehicle","cell line":"OCI-P5x (serous)","technical replicate":"2","viability, normalised (%)":"62.2 (active)"}
{"gene knocked down":"CECR2","rucaparib or vehicle":"Vehicle","cell line":"OCI-P5x (serous)","technical replicate":"3","viability, normalised (%)":"75.5 (active)"}
{"gene knocked down":"CECR2","rucaparib or vehicle":"Vehicle","cell line":"OCI-P5x (serous)","technical replicate":"3","viability, normalised (%)":99.7}
